Experimental data from the supplement of paper PMC10849652.
The other results are listed elsewhere or left out.

Protein sequences, listed by entry. Tags and fused reporters are not part of them. Lines headed by an entry give the natural chain unless they say otherwise; changes in a name come on top.
UniProt Q9Y262, whole entry, looked up: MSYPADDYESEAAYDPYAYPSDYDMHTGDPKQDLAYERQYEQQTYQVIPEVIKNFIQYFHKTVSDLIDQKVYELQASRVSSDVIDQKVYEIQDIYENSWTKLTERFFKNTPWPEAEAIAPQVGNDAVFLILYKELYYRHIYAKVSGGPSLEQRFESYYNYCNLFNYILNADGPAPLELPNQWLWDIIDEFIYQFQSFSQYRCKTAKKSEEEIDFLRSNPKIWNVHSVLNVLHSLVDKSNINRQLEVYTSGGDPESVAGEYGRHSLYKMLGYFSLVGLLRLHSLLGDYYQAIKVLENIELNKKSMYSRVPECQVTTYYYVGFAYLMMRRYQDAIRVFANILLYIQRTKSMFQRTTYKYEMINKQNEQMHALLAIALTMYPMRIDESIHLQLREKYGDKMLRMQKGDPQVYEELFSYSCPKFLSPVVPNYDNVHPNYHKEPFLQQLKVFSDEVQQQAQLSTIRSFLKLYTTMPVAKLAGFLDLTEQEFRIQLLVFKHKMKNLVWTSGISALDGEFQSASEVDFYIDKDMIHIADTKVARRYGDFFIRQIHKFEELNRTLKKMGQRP
UniProt Q9NR50: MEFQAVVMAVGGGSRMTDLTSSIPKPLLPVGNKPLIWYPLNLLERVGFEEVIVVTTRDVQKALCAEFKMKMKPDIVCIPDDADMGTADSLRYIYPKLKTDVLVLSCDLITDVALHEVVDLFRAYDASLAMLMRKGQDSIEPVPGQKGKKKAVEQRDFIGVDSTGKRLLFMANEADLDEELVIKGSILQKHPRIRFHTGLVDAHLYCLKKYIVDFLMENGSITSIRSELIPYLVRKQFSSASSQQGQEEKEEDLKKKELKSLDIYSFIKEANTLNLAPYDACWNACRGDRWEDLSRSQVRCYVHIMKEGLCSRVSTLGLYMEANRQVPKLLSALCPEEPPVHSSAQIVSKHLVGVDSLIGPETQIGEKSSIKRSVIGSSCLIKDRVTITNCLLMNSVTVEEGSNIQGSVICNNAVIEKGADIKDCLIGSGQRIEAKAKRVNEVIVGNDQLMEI
UniProt Q7L2H7, whole entry, looked up: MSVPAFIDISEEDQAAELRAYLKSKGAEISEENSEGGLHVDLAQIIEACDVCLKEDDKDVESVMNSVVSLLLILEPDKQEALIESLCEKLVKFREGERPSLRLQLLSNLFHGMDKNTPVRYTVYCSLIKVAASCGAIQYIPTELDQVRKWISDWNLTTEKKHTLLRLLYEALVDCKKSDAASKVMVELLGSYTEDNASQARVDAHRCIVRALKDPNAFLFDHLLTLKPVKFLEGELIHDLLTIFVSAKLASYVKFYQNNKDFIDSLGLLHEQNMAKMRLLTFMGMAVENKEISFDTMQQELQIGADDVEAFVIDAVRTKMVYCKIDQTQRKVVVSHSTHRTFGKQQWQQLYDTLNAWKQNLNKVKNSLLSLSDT
UniProt Q92556, whole entry, looked up: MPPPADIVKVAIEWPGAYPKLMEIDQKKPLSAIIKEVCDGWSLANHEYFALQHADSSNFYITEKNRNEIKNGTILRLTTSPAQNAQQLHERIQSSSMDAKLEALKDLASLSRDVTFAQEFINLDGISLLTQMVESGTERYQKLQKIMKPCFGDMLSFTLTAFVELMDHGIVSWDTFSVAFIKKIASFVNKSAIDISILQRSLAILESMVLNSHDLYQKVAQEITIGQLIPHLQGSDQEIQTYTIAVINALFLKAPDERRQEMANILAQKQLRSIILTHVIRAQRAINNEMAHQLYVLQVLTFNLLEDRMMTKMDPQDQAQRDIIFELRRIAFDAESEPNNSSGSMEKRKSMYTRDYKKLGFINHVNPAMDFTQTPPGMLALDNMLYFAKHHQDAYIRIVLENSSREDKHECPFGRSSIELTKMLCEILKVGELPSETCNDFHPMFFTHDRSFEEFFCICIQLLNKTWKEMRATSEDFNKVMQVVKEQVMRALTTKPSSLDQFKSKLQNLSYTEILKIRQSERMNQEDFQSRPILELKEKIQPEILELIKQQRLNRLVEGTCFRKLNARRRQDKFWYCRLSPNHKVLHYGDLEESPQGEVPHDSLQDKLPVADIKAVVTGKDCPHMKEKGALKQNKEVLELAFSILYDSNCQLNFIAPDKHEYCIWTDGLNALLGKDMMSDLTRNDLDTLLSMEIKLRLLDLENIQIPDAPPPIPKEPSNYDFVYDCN
UniProt O60573: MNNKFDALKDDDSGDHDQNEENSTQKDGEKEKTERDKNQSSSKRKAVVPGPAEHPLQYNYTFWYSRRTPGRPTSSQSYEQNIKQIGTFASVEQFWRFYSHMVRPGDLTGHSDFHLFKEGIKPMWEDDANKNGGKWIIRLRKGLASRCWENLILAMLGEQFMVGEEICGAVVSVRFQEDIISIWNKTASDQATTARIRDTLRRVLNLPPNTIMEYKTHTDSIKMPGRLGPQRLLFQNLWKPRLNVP
UniProt Q9UI10, whole entry, looked up: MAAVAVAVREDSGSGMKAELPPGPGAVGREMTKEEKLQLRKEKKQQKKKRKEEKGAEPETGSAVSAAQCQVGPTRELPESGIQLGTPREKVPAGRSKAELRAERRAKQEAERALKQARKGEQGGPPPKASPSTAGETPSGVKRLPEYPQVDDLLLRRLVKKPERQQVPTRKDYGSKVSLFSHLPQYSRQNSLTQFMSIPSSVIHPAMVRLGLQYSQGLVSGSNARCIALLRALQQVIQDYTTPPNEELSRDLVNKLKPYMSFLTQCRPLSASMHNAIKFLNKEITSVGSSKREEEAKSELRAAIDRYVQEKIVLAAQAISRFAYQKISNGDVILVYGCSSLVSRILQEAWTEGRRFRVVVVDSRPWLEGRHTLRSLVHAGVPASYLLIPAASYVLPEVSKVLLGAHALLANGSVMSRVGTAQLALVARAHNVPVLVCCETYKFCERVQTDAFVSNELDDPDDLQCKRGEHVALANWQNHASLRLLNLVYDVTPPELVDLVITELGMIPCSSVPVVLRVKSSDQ
UniProt Q9H5J4: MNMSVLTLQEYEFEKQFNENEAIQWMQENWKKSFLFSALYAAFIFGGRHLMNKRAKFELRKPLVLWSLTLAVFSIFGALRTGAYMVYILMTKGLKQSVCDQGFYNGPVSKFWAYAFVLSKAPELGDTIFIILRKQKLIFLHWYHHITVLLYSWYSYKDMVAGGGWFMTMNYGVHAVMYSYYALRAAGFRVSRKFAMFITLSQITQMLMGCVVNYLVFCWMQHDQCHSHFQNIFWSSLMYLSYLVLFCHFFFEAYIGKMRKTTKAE
UniProt Q12805: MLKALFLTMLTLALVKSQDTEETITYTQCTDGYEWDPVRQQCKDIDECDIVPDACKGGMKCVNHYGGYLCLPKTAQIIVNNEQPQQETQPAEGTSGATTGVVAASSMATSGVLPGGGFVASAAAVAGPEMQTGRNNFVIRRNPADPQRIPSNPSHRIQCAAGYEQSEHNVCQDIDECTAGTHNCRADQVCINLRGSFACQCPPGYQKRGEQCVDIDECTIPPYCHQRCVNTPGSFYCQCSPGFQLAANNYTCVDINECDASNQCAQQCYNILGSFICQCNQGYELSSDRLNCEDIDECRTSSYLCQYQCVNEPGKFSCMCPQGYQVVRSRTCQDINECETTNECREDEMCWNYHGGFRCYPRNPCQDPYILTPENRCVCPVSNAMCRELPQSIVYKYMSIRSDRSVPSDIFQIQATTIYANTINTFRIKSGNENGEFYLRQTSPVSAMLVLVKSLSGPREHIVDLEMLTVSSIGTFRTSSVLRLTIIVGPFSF
UniProt Q9GZV4: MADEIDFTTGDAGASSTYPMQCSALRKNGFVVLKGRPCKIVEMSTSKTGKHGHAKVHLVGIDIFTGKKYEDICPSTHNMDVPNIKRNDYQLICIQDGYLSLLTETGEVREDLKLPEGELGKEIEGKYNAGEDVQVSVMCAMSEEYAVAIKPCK
UniProt Q5VUJ9: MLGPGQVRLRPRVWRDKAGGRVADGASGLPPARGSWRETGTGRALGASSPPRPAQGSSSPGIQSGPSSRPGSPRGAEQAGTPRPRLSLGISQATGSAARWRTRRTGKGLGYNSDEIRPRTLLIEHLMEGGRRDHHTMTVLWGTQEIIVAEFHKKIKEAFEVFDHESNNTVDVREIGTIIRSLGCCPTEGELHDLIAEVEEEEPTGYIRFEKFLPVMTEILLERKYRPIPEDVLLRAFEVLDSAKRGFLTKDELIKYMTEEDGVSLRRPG
UniProt Q5JPI9: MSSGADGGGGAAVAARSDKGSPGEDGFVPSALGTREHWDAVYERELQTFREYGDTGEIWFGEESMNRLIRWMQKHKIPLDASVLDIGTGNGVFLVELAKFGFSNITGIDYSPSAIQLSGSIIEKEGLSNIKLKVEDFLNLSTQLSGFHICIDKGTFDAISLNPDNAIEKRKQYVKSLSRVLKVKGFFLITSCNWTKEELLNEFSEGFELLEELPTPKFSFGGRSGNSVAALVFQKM
UniProt Q9BUP0: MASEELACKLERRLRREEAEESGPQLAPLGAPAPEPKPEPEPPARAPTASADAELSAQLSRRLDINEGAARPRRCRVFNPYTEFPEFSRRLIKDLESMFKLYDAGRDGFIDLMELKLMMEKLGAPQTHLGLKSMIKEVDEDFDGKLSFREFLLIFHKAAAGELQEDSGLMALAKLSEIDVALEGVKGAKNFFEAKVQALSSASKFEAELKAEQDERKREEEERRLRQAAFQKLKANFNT
UniProt Q9Y6B2: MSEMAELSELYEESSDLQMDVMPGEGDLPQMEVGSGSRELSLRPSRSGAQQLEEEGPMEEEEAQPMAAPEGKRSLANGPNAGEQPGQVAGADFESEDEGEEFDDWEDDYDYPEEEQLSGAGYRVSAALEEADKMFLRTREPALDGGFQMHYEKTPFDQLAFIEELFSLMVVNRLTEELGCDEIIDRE
UniProt P11171, whole entry, looked up: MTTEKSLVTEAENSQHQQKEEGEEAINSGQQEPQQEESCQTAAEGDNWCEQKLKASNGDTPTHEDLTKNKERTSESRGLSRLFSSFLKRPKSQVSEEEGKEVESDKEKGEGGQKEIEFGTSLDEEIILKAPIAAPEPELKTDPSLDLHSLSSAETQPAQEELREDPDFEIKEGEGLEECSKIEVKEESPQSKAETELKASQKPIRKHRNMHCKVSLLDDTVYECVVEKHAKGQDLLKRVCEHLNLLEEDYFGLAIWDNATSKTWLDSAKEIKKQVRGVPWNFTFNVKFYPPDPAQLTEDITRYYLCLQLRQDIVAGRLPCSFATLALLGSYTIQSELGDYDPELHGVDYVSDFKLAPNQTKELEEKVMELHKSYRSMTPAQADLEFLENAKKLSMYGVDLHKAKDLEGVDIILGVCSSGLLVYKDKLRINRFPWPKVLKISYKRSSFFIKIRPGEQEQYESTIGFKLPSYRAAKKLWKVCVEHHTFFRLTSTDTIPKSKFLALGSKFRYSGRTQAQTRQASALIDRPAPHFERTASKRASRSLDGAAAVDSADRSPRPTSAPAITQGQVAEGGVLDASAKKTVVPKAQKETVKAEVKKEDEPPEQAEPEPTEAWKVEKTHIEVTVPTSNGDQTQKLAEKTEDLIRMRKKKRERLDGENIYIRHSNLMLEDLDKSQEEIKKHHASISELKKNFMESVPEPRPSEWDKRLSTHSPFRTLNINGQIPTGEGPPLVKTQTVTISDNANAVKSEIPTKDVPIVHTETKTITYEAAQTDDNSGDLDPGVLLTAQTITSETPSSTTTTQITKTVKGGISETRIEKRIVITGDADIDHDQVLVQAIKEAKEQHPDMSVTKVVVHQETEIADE
UniProt P26378: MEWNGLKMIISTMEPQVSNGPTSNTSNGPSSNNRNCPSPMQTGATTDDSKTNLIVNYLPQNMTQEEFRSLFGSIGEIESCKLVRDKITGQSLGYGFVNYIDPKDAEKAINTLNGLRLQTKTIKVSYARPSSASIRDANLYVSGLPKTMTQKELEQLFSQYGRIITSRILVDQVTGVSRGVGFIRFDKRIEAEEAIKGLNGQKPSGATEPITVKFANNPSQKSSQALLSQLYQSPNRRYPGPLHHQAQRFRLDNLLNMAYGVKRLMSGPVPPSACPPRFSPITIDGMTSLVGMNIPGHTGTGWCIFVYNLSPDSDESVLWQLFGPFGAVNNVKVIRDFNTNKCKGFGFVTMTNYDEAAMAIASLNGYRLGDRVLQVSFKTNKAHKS
UniProt Q9NQZ7: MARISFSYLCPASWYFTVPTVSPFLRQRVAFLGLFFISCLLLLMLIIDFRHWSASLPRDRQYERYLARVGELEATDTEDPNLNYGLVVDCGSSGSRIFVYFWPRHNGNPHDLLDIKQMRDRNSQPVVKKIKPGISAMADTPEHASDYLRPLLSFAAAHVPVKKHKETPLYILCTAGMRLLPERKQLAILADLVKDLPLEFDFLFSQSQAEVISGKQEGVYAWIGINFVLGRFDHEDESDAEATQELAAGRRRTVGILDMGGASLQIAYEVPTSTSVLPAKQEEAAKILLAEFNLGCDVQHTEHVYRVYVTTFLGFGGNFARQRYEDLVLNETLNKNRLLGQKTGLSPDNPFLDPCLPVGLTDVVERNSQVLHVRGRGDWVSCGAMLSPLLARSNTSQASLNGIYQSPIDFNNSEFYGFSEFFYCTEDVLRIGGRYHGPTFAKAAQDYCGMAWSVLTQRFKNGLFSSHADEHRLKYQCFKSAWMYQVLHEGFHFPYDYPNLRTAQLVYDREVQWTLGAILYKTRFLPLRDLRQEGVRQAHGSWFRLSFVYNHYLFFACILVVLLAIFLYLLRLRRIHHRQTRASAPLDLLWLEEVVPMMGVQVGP

What was measured:
Experiment in all cases: log2 fold change, soluble protein after heating vs DMSO (PISA); higher = thermal stabilisation; K562 cells, 10 uM, 30 min; active = over 0.2 and 3.5 SD of the protein, either way, in both replicates (recomputed)
[1] = compound: NC(=O)Nc1cc(-c2cccc(F)c2)sc1C(=O)N[C@H]1CCCNC1
In short: (§1)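 K562 cells at 2×10^6 cells/mL were treated with 10 μM compound for 30 min. Aliquots were heated for 3 min across 48°C-58°C, pooled, and extracted in PBS with 0.5% NP-40 at 4°C; soluble protein was the supernatant after 21,000xg for 90 min. Soluble protein was quantified by TMTpro 16plex LC-MS/MS with channel sums equalised, and reported as log2 fold change in thermal stability against DMSO controls, with values from duplicates.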

[2] = compound: NC(=O)c1cnc(N[C@@H]2CCCC[C@@H]2N)nc1Nc1cccc(-n2nccn2)c1
In short: as §1

[3] = compound: NC1(c2ccc(-c3nc4ccn5c(=O)[nH]nc5c4cc3-c3ccccc3)cc2)CCC1
In short: as §1

[4] = compound: NCC(=O)Nc1ccc(-n2nc(C(F)(F)F)cc2-c2ccc3c(ccc4ccccc43)c2)cc1
In short: as §1

entinostat = compound: Nc1ccccc1NC(=O)c1ccc(CNC(=O)OCc2cccnc2)cc1 [entinostat]
In short: as §1

vorinostat = compound: O=C(CCCCCCC(=O)Nc1ccccc1)NO [vorinostat]
In short: as §1

citarinostat = compound: O=C(CCCCCCNC(=O)c1cnc(N(c2ccccc2)c2ccccc2Cl)nc1)NO [citarinostat]
In short: as §1

silmitasertib = compound: O=C(O)c1ccc2c(c1)nc(Nc1cccc(Cl)c1)c1ccncc12 [silmitasertib]
In short: as §1

[5] = compound: O=C1NC(=O)C(c2cnc3ccccn23)=C1c1cn2c3c(cc(F)cc13)CN(C(=O)N1CCCCC1)CC2
In short: as §1

[6] = compound: c1cc(OCCN2CCCCC2)cc(-c2n[nH]c3ccc(-c4nnc[nH]4)cc23)c1
In short: as §1

entospletinib = compound: c1cn2cc(-c3ccc4cn[nH]c4c3)nc(Nc3ccc(N4CCOCC4)cc3)c2n1 [entospletinib]
In short: as §1

Measured: log2 fold change

EML3 isoform 2 (UniProt Q32P44)
inactive: [1] -0.155 | [2] 0.001 | [3] 0.083 | [4] -0.122 | entinostat -0.08 | vorinostat -0.017 | citarinostat -0.035 | silmitasertib 0.049 | [5] 0.224 | [6] -0.039 | entospletinib -0.145

ELF1 (UniProt P32519)
inactive: [1] -0.124 | [2] -0.044 | entinostat -0.11 | citarinostat -0.089 | [5] -0.075 | [6] -0.18

EIF3L (UniProt Q9Y262)
inactive: [1] 0.018 | [2] -0.037 | [3] -0.059 | [4] 0.001 | entinostat -0.001 | vorinostat 0.039 | citarinostat 0.03 | silmitasertib -0.027 | [5] -0.102 | [6] -0.067 | entospletinib -0.015

EIF2B3 (UniProt Q9NR50)
inactive: [1] 0.008 | [2] -0.026 | [3] 0.011 | [4] 0.013 | entinostat -0.001 | vorinostat 0.011 | citarinostat 0.054 | silmitasertib 0.106 | [5] 0.083 | [6] -0.082 | entospletinib 0.02

EIF3M (UniProt Q7L2H7)
inactive: [1] -0.04 | [2] -0.011 | [3] -0.137 | [4] 0.027 | entinostat 0.086 | vorinostat 0.069 | citarinostat 0.078 | silmitasertib 0.104 | [5] 0.006 | [6] -0.092 | entospletinib 0.021

EEF2 (UniProt P13639)
inactive: [1] 0.045 | [2] 0.005 | [3] 0.015 | [4] 0.037 | entinostat -0.005 | vorinostat -0.001 | citarinostat 0.017 | silmitasertib -0.051 | [5] -0.005 | [6] -0.034 | entospletinib -0.024

ELMO1 (UniProt Q92556)
inactive: [1] -0.07 | [3] -0.146 | [4] -0.316 | entinostat 0.093 | silmitasertib 0.04 | [5] -0.104

EIF2AK1 (UniProt Q9BQI3)
inactive: [1] -0.034 | [2] 0.018 | [3] -0.023 | [4] 0.001 | entinostat 0.129 | vorinostat -0.058 | silmitasertib 0 | [5] 0.133

EIF4E2 (UniProt O60573)
inactive: [1] 0.054 | [2] -0.015 | [3] 0.085 | [4] -0.048 | entinostat 0.075 | citarinostat 0.245 | silmitasertib 0.019 | [5] 0.003 | [6] 0.079

2 consecutive entries from above:
EEF2 (UniProt P13639)
inactive: [1] 0.045 | [2] 0.005 | [3] 0.015 | [4] 0.037 | entinostat -0.005 | vorinostat -0.001 | citarinostat 0.017 | silmitasertib -0.051 | [5] -0.005 | [6] -0.034 | entospletinib -0.024

ELMO1 (UniProt Q92556)
inactive: [1] -0.07 | [3] -0.146 | [4] -0.316 | entinostat 0.093 | silmitasertib 0.04 | [5] -0.104

(cont.)

EIF2B4 isoform 2 (UniProt Q9UI10)
inactive: [1] 0.013 | [2] -0.028 | [3] -0.017 | [4] -0.014 | entinostat -0.035 | vorinostat 0.021 | citarinostat 0.03 | silmitasertib 0.018 | [5] 0.056 | [6] -0.055 | entospletinib -0.039

EHMT1 (UniProt Q9H9B1)
inactive: [1] 0.057 | [2] -0.09 | [3] -0.311 | [4] -0.017 | entinostat 0.059 | vorinostat -0.122 | silmitasertib 0.092 | [5] -0.043

ELOVL6 (UniProt Q9H5J4)
inactive: [1] 0.116 | [3] -0.058 | [4] -0.137 | entinostat 0.126 | citarinostat 0.017 | silmitasertib 0.132 | [6] -0.146 | entospletinib -0.002

EIF3J isoform 2 (UniProt O75822)
inactive: [1] -0.094 | [2] -0.197 | [3] -0.102 | [4] 0.023 | entinostat -0.041 | silmitasertib -0.11 | [5] 0.002

ELL (UniProt P55199)
inactive: [1] 0.006 | [2] -0.244 | entinostat -0.006 | vorinostat -0.034 | citarinostat 0.049 | [5] -0.049 | [6] 0.046 | entospletinib -0.166

EMP3 (UniProt P54852)
inactive: [1] -0.14 | [2] -0.013 | [3] -0.104 | [4] 0.068 | entinostat 0.009 | citarinostat 0.029 | silmitasertib 0.153 | [5] 0.055 | [6] -0.289 | entospletinib 0.094

EFEMP1 (UniProt Q12805)
inactive: [1] -0.186 | [2] -0.057 | entinostat 0.052 | vorinostat 0.245

EIF3G (UniProt K7ER90)
inactive: [1] -0.005 | [2] -0.003 | [3] -0.19 | [4] -0.101 | entinostat 0.12 | silmitasertib 0.087 | [5] 0.025

EEF1A1 (UniProt P68104)
inactive: [1] -0.046 | [2] 0.084 | [3] 0.091 | [4] 0.191 | entinostat -0.017 | citarinostat -0.04 | silmitasertib -0.11 | [5] 0.023 | [6] 0.07

ENO2 (UniProt U3KQQ1)
inactive: [1] -0.291 | entinostat -0.336 | vorinostat -0.605

EIF5A2 (UniProt Q9GZV4)
inactive: [2] -0.163 | [3] -0.126 | silmitasertib 0.105

EIF2AK3 (UniProt Q9NZJ5)
inactive: [2] 0.056 | [3] -0.211 | vorinostat -0.02 | citarinostat -0.039 | silmitasertib -0.085 | [5] 0.127 | [6] 0.097

EIF1B (UniProt O60739)
inactive: [1] -0.098 | [3] 0.129 | entinostat 0.12 | citarinostat -0.053 | silmitasertib 0.015 | [5] -0.342 | [6] -0.058 | entospletinib 0.093

EIF3E (UniProt E5RIT4)
inactive: [5] -0.228

EFCAB2 (UniProt Q5VUJ9)
inactive: [2] -0.112 | vorinostat -0.083 | citarinostat 0.058 | [6] 0.003 | entospletinib 0.039

EEF1AKMT2 (UniProt Q5JPI9)
inactive: [1] -0.148 | [3] 0.039 | entinostat -0.05 | citarinostat -0.004 | silmitasertib 0.028 | [6] -0.03 | entospletinib 0.037

EFHD1 (UniProt Q9BUP0)
inactive: [1] -0.118 | [4] -0.019 | entinostat 0.026 | vorinostat 0 | [5] -0.013

ELOVL7 (UniProt A1L3X0)
inactive: [2] -0.001 | [5] -0.09

EIF3I (UniProt Q5TFK1)
inactive: [2] -0.139

EIF4G1 (UniProt Q04637)
inactive: [2] -0.14 | [4] -0.075 | vorinostat 0.085

EML5 isoform 5 (UniProt Q05BV3)
inactive: [2] -0.101 | [3] -0.121 | [4] -0.096 | silmitasertib 0.033

EIF4H isoform 2 (UniProt Q15056)
inactive: [2] -0.442 | vorinostat -0.166

EEF2K (UniProt O00418)
inactive: [3] -0.119 | [4] -0.114 | vorinostat 0.19 | citarinostat -0.05 | silmitasertib 0.216 | [5] 0.178 | [6] 0.012

EID1 (UniProt Q9Y6B2)
inactive: [1] -0.078 | [3] -0.055 | entinostat 0.086 | vorinostat -0.457 | silmitasertib -0.156 | [5] -0.652

EPB41 isoform 4 (UniProt P11171)
inactive: [3] 0.015 | vorinostat 0.234 | silmitasertib -0.099

EIF2B4 (UniProt Q9UI10)
inactive: [2] 0.076 | [3] -0.125 | [4] -0.109 | vorinostat 0.027 | citarinostat -0.033 | silmitasertib 0.05 | [5] 0.049 | [6] -0.139 | entospletinib 0.214

EIF4B (UniProt F8VP89)
inactive: [2] 0.052 | [3] 0.025 | vorinostat -0.178 | citarinostat -0.033 | silmitasertib -0.048 | [6] 0.056 | entospletinib 0.016

ELAVL4 (UniProt P26378)
inactive: vorinostat 0.026 | citarinostat -0.106 | [6] -0.148 | entospletinib 0.144

ENAH (UniProt Q8N8S7)
inactive: [4] -0.506 | vorinostat 0.083

ENTPD7 (UniProt Q9NQZ7)
inactive: [1] 0.024 | [3] -0.052 | entinostat 0.236 | citarinostat 0.131 | silmitasertib -0.357 | [5] -0.098 | [6] -0.138
